# The other results are listed elsewhere or left out. The data scatter; read single values as rough.
# The chains behind the UniProt entries cited, without tags or fusion partners. Where a name states a change or a piece, a line headed by the entry shows the natural chain unless it says otherwise.
# UniProt P51798: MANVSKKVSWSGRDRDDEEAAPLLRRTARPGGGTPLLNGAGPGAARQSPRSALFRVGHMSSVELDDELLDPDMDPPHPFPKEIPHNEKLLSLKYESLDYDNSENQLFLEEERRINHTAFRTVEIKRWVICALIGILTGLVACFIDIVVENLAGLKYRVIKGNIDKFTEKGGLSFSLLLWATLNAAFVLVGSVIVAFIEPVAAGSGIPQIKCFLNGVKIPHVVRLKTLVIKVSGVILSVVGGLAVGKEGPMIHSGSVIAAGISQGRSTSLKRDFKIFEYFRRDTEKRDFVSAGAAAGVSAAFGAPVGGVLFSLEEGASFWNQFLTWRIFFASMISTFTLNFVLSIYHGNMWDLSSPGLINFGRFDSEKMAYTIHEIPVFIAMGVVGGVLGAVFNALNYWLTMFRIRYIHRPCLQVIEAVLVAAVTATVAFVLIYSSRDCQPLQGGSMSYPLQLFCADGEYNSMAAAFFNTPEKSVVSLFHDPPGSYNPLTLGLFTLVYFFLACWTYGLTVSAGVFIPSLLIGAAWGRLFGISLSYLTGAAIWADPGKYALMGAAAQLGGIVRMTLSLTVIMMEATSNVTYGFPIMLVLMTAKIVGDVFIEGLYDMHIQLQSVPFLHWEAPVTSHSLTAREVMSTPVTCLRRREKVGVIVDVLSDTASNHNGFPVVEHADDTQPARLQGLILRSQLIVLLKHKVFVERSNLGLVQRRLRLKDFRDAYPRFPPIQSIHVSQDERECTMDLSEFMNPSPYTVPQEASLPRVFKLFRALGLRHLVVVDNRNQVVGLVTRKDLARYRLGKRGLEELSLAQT
# Target: T1, CLCN7 C733 (UniProt P51798)
# T1 sequence (whole entry): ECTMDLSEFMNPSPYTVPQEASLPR
# Assay: log2 mean competition ratio of IA-DTB cysteine labelling (DMSO/compound) (log2 ratio); higher = stronger cysteine engagement by compound
# Details: 50 µM; treatment time: 4 h; cell line lysate: HEK293T
# Protocol: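 IA-DTB competitive cysteine chemoproteomics in HEK293T RIPA lysate. Lysates were treated with compound 29 or 30 at 50 or 200 µM for 4 h, then IA-DTB (500 µM, 1 h), trypsin-digested, NeutrAvidin-enriched and analysed by diaPASEF. Competition ratio = intensity DMSO / intensity compound (n=4 treated, n=64 DMSO); binding: mean log2 CR ≥ 1 and p ≤ 0.05 plus QC filters. Target is the cysteine site.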
row,SMILES,log2 mean competition ratio
1,O=C(CCl)N[C@H]1CCCc2ccccc21,0.104
2,O=C(CCl)N[C@@H]1CCCc2ccccc21,-0.241

# Same assay, conditions: 200 µM; treatment time: 4 h; cell line lysate: HEK293T
row,SMILES,log2 mean competition ratio
1,O=C(CCl)N[C@H]1CCCc2ccccc21,-0.0755
2,O=C(CCl)N[C@@H]1CCCc2ccccc21,0.203
